Measurements from paper PMC7069097.

The chains behind the UniProt entries cited, without tags or fusion partners. Where a name states a change or a piece, a line headed by the entry shows the natural chain unless it says otherwise.
UniProt Q8N4S7: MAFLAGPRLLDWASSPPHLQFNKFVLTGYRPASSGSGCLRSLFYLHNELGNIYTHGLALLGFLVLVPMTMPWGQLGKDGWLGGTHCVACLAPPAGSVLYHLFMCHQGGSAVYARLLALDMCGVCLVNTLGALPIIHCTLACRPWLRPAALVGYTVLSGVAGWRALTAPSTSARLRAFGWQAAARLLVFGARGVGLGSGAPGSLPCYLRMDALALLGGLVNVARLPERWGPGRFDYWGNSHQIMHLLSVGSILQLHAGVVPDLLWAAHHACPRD
UniProt Q16236: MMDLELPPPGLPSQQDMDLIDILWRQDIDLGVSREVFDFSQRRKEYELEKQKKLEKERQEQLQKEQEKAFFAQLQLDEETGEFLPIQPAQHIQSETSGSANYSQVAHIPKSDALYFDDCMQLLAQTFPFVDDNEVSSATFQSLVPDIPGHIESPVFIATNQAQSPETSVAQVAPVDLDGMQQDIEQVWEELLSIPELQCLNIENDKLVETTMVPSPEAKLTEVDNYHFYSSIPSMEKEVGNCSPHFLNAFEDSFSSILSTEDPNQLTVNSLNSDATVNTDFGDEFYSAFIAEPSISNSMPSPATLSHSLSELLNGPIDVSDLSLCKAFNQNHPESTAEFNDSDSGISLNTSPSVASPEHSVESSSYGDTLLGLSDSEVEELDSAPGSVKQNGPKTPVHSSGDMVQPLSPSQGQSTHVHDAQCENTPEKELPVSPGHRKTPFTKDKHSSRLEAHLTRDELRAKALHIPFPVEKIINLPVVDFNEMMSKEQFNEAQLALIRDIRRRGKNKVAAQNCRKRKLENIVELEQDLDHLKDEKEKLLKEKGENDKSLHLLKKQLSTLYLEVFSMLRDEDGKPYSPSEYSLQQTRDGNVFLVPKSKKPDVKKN

Target: GST-PAQR4 fusion protein (human) (UniProt Q8N4S7)
Assay: pull-down; bacterially expressed, purified GST-PAQR4 (or GST) incubated with SPC-A1 cell lysates; western blot of endogenous proteins; only the target purified

binding: binds
Substance: endogenous Nrf2 (from UniProt Q16236 1-605)

These are yes or no findings as the source states them, for the method shown. Binding seen in cells or lysates may run through a third protein. Binding calls can cover weak binding; strength is not graded here.
